Results as given in paper PMC10511561.
These are yes or no findings as the source states them, for the method shown. Binding seen in cells or lysates may run through a third protein. Some binding calls cover weakened binding; strength is not graded here. Where a sequence is shown, tags or fusion partners need not be part of it.

Sequences of proteins named here, by UniProt entry; tags and fusion partners are left off.
UniProt Q08032: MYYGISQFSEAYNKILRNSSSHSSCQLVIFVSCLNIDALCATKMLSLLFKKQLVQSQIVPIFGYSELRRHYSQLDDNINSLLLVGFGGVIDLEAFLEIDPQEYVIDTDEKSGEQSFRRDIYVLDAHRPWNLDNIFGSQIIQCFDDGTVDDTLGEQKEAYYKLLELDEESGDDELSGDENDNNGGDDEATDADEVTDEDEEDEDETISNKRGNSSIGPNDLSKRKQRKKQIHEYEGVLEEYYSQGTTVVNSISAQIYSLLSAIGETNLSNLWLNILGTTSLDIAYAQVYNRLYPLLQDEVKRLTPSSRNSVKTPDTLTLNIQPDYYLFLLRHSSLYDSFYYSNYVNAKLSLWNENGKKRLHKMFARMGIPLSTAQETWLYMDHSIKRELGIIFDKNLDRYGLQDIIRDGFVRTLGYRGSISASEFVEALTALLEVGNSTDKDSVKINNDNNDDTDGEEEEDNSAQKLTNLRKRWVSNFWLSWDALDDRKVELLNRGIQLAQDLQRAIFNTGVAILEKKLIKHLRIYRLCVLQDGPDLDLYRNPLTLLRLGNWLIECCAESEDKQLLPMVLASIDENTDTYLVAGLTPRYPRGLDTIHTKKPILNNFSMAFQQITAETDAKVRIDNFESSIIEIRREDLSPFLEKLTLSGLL

Legend:
Psf2-Flag (yeast) [1] = molecular target: T1, Psf2-Flag (yeast) (UniProt P40359); test: condition: only G1-arrested cells (before release into S phase); co-IP; Flag IP (anti-FLAG M2 gel) of Psf2-Flag from Benzonase-treated lysates of POL2-WT pol2-iAID cells after depletion of Pol2-AID; G1-arrested cells (before release); blots for Flag, Cdc45, Mcm2
T1 sequence: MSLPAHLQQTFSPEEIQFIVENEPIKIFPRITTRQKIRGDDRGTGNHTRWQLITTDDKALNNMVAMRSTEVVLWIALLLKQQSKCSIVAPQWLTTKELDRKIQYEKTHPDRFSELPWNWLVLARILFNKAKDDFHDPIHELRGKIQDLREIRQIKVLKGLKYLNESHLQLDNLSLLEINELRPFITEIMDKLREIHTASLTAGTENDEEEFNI

Psf2-Flag (yeast) [2] = molecular target: T1, Psf2-Flag (yeast); test: co-IP; Flag IP (anti-FLAG M2 gel) of Psf2-Flag from Benzonase-treated lysates of pol2-iAID cells with POL2-WT or pol2ΔDS2 after depletion of Pol2-AID; early S phase cells, 30 min after release from G1 arrest; blots for Flag, Cdc45, Mcm2

binding (Psf2-Flag (yeast) [1]): no binding | binding (Psf2-Flag (yeast) [2]): binds
Substance: Cdc45 (in yeast lysate) (from UniProt Q08032 1-650)
